In publication PMC7819943, “Rice protein-binding microarrays: a tool to detect cis-acting elements near promoter regions in rice” one finds binding signal data, which are given here for 54 sequences.

This is one part of the list.

This assay concerns the target T1, OsSMF1 (Oryza sativa, UniProt Q6ZLB0 1-436).
T1 sequence: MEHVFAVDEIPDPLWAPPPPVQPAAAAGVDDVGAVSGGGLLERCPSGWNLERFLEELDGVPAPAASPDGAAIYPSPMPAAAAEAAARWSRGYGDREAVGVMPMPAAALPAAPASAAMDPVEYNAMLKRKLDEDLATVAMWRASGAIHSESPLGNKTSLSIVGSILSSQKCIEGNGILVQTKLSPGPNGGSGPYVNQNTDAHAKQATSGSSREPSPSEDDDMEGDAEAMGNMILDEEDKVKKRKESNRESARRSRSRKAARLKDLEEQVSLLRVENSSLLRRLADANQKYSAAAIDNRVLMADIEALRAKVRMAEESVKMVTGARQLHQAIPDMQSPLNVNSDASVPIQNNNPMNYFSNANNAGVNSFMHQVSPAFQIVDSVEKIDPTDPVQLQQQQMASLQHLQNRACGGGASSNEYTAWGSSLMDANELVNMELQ
Nature of the assay: protein-binding microarray (RPBM); PBS, 2% BSA, 51.3 ng/ul salmon testes DNA, 50 uM zinc acetate, 200 nM TF, 25 C, 1 h; high values mean tight binding. The conditions noted are these: protein: recombinant; tags: N-terminal polyhistidine and DsRed monomer fusion (pET32a); chain copies: 2; label: CyDye5-dUTP incorporated in the synthesized complementary strand; 3' TTTTT single-stranded linker to array surface; dsDNA, one strand shown. In outline: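 Binding signal is reported as fluorescence intensity per feature (arbitrary units) from an Axon 4000B scanner. Incubation used 200 nM of each Ni–NTA-purified, N-terminally polyhistidine- and DsRed-fused transcription factor from E. coli BL21-CodonPlus on a double-stranded custom Agilent array for 1 h at 25 °C, with 50 µM zinc acetate in the buffer, followed by washing.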
With “CAAACTCATCATCCAGAGTCCAGACTCATCTCTACTTCCACGGAGTCACCTAGTGCAG”, the binding signal was 4050 fluorescence intensity (a.u.).

On to “TGATAATAATTATTTCTTGGTCTTTAAATTAAGGGTGATTCGGAGTCACCTAGTGCAG”, for which the binding signal is 14800 fluorescence intensity (a.u.).

In the case of “CGCTAGGAGGATGGTTAGCAAACAGTAATTTCGTGTGACACGGAGTCACCTAGTGCAG”, the binding signal was 3600 fluorescence intensity (a.u.).

As for “ATTTGGAGAATCTATGGATGAGGATGAGTCATAATCCAAACGGAGTCACCTAGTGCAG”, the binding signal is 8180 fluorescence intensity (a.u.).

With “AAAGCTCTCCACGTCACCACCGCCGCCACGCTCTCGCCTCCGGAGTCACCTAGTGCAG”, the binding signal was 33500 fluorescence intensity (a.u.).

Regarding “CGAACGGCCGTCTGCCACGTCATTTTCGCCGGCCCTCTGGCGGAGTCACCTAGTGCAG”, the binding signal was 17900 fluorescence intensity (a.u.).

For the sequence “CAAGAGTTATCAATACATATCGGAATATCGTGACCTATCACGGAGTCACCTAGTGCAG”, the binding signal was 29200 fluorescence intensity (a.u.).

As to “TGTCAAAAGTTGCAGGGGCAATGGCGTGGAGGGAGGGTACCGGAGTCACCTAGTGCAG”, the binding signal is 3720 fluorescence intensity (a.u.).

For the sequence “GCTCGTGGAGCACGGATACGCCGTCACCGTCGCACTCATCCGGAGTCACCTAGTGCAG”, the binding signal is 4360 fluorescence intensity (a.u.).

Consider “TTCTGTTTAGCACCGTATGCATTATGGCATTTAGTTCTTGCGGAGTCACCTAGTGCAG”, for which the binding signal is 3400 fluorescence intensity (a.u.).

For the sequence “GGAGATCAGCGCCGGCGGCCTCGTCAGCGCCCTCCTCGGTCGGAGTCACCTAGTGCAG”, the binding signal was 7560 fluorescence intensity (a.u.).

In the case of “ACTCCGGTCCAGGAAAATTATTCCTATAGTAATGTAATAACGGAGTCACCTAGTGCAG”, the binding signal is 42900 fluorescence intensity (a.u.).

Turning to “TATGTATGATCTCTTCCTGTAACATTTTCATCATCTAACCCGGAGTCACCTAGTGCAG”, the binding signal was 3480 fluorescence intensity (a.u.).

Regarding “TTGTGACAAGTAACTGAGGATCACATCACGATCGGCAACCCGGAGTCACCTAGTGCAG”, the binding signal is 3560 fluorescence intensity (a.u.).

“CACTGAGTCACTGCCAGCTCAGCAAAAGCCAAAGTGTCAACGGAGTCACCTAGTGCAG”: the binding signal is 11500 fluorescence intensity (a.u.).

Take “TGGGGAGTAGGAGGCGAGGGTGGCGTCATCGTGGTCGAGGCGGAGTCACCTAGTGCAG”: the binding signal is 8200 fluorescence intensity (a.u.).

For the sequence “ACGAGTGCCACCGCGACCTCGTCCGCTCCGCCTACCTCCCCGGAGTCACCTAGTGCAG”, the binding signal is 8630 fluorescence intensity (a.u.).

For “AGCCTAGCACAGTCATCAGGTAGCCTATAGTGGTGCCTAACGGAGTCACCTAGTGCAG”, the binding signal was 4510 fluorescence intensity (a.u.).

As to “CAATATGACGTACGGCCATCCTGGCGTCACCGTGACGACGCGGAGTCACCTAGTGCAG”, the binding signal is 6600 fluorescence intensity (a.u.).

For the sequence “TAAATGCATTTGTTTCAGCCTCATATGTCAGCACTCCCATCGGAGTCACCTAGTGCAG”, the binding signal is 3370 fluorescence intensity (a.u.).

For the sequence “ATTCAAGTATCTAGTTTTGAACGTGTTACCATAATCTGGCCGGAGTCACCTAGTGCAG”, the binding signal was 11800 fluorescence intensity (a.u.).

With “CATCCTCTTCTCCTTCTCCTTGTTGGAAATGCTTTCCTTTCGGAGTCACCTAGTGCAG”, the binding signal was 15500 fluorescence intensity (a.u.).

As to “CCGTGCTACAGCTGGCTACAAATATGTAGCCCTATGCTCTCGGAGTCACCTAGTGCAG”, the binding signal is 18300 fluorescence intensity (a.u.).

For “AAAATACCATTACTATTTAGCATATCGGCTACGTGTTACTCGGAGTCACCTAGTGCAG”, the binding signal is 3660 fluorescence intensity (a.u.).

Regarding “ACGCCATCGCGTCGCGTCATTCTTCCAATCGAGAACTCTTCGGAGTCACCTAGTGCAG”, the binding signal was 4720 fluorescence intensity (a.u.).

As to “AATAAAGAAATTCTTGGACTACGTGGTACTCCCTCCGTCCCGGAGTCACCTAGTGCAG”, the binding signal is 6040 fluorescence intensity (a.u.).

Consider “ACTGAAGTAATGCTTTATACACGGTTACACGACACGTCATCGGAGTCACCTAGTGCAG”, for which the binding signal was 16100 fluorescence intensity (a.u.).

Take “CTACATACACCCGTCCGAGTCATACGCGAGACCGCCCTCGCGGAGTCACCTAGTGCAG”: the binding signal is 6800 fluorescence intensity (a.u.).

Consider “TCGAACGCTCCACATTGAGCCACGTACACCGCCTCCTTCTCGGAGTCACCTAGTGCAG”, for which the binding signal is 3880 fluorescence intensity (a.u.).

As to “TGAAACCAGATCACTTTACATCCCTACGTGGCCGCCTACGCGGAGTCACCTAGTGCAG”, the binding signal is 5220 fluorescence intensity (a.u.).

Regarding “TGGAACCCACTGCTTTGCCTATAAATATGTAGCTATAGCTCGGAGTCACCTAGTGCAG”, the binding signal was 4160 fluorescence intensity (a.u.).

As for “ACGTCATCTGCCTGACGTGTCACCGACACATCCCGGACAGCGGAGTCACCTAGTGCAG”, the binding signal was 23500 fluorescence intensity (a.u.).

For the sequence “GGGATAAAATTGCCACGTAAGCGCCACCTTAACACTATGTCGGAGTCACCTAGTGCAG”, the binding signal was 34100 fluorescence intensity (a.u.).

Turning to “CCATCCCTCCCTCCTTGAAAATGCCAGCTCATTCCAATACCGGAGTCACCTAGTGCAG”, the binding signal is 6880 fluorescence intensity (a.u.).

As to “CGTTGAAAACGAGTACTACGTGTTTGATGAATCGCCTGCCCGGAGTCACCTAGTGCAG”, the binding signal was 3230 fluorescence intensity (a.u.).

In the case of “CGTGACGGGCGACGACACTAACAGCGACACGTTAGCCGGACGGAGTCACCTAGTGCAG”, the binding signal is 4230 fluorescence intensity (a.u.).

As to “TACCATTGTGCTATGGGAAAAGTACACGCAAGGTCCCTCACGGAGTCACCTAGTGCAG”, the binding signal is 5760 fluorescence intensity (a.u.).

In the case of “ACACCACCTCACACTTGCTCACCTAGACCATGTTCCTACTCGGAGTCACCTAGTGCAG”, the binding signal is 3740 fluorescence intensity (a.u.).

Regarding “AAACCCAATCCAGTTAGGAATAGAACATTAGATATCCAACCGGAGTCACCTAGTGCAG”, the binding signal was 3940 fluorescence intensity (a.u.).

As for “TTGTTCCAACGCTGTGCCATGTAATATTGCATTTGAATCACGGAGTCACCTAGTGCAG”, the binding signal is 3780 fluorescence intensity (a.u.).

Turning to “CTCACTCATCCTAATCCAGCATCAGTCCCAGCTCGATCTCCGGAGTCACCTAGTGCAG”, the binding signal was 3850 fluorescence intensity (a.u.).

For the sequence “CAGTGTACATATATACACACACTGACTCACTGAGAATCTCCGGAGTCACCTAGTGCAG”, the binding signal was 4650 fluorescence intensity (a.u.).

On to “CCAGCTGGCGTGCGCGTCAGCTAAACTGCTGGCGCGTACGCGGAGTCACCTAGTGCAG”, for which the binding signal is 4680 fluorescence intensity (a.u.).

In the case of “ATCGTCGTCGCCGCCGCCTCCCATGTCGTTGCTGTCGCCGCGGAGTCACCTAGTGCAG”, the binding signal was 3240 fluorescence intensity (a.u.).

Take “CTAGATATCCCTTGTTTGTGTGTATGATGTATGCACTCCACGGAGTCACCTAGTGCAG”: the binding signal was 3990 fluorescence intensity (a.u.).

Consider “GTGCTTATTTGATGTGGCATTTGGGCCTTGGTTTAACCGTCGGAGTCACCTAGTGCAG”, for which the binding signal is 4430 fluorescence intensity (a.u.).

Consider “CCATCAAGAGAAGCTCTACCTCGGCCCGTCCTCGCCCGCCCGGAGTCACCTAGTGCAG”, for which the binding signal was 34900 fluorescence intensity (a.u.).

Take “TAGGCTAGCTTGTCAACGTCACCGACGCACGCAATTACTTCGGAGTCACCTAGTGCAG”: the binding signal was 3340 fluorescence intensity (a.u.).

Regarding “TTTTATCTGTATGGGCACGACACGTACGTCCACGGTCCACCGGAGTCACCTAGTGCAG”, the binding signal was 7000 fluorescence intensity (a.u.).

“AAGAGAAAATTCAAGAAATATCATTACCAAAGTCCAAGAACGGAGTCACCTAGTGCAG”: the binding signal is 52800 fluorescence intensity (a.u.).

For “ACGCCGTGACGGTGTATGTAGGCCGACTGGTCCACGTACGCGGAGTCACCTAGTGCAG”, the binding signal was 8090 fluorescence intensity (a.u.).

Consider “CACGTTTCCTTCTCCAGTTTCCCACACACACTCACCCCTGCGGAGTCACCTAGTGCAG”, for which the binding signal was 3500 fluorescence intensity (a.u.).

As for “ATGCCCTCTCCAACCTCCACTCCGTCACATGCTCCGGATCCGGAGTCACCTAGTGCAG”, the binding signal was 4630 fluorescence intensity (a.u.).

In the case of “ACATGGGCCCATACTCCCTGCACGGGAGCAAACTGGATATCGGAGTCACCTAGTGCAG”, the binding signal is 3270 fluorescence intensity (a.u.).
